Measurements taken from publication PMC5762634.
Results are given in words; binding and its absence hold for the method and conditions named. Some binding calls cover weakened binding; strength is not graded here.

Amino acid sequences for entries named in this document (tags omitted). Residues count along the entry.
UniProt P51858, residues 1-100: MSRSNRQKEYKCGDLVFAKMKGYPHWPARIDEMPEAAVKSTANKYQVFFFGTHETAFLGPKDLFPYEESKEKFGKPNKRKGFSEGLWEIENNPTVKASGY
UniProt P19338: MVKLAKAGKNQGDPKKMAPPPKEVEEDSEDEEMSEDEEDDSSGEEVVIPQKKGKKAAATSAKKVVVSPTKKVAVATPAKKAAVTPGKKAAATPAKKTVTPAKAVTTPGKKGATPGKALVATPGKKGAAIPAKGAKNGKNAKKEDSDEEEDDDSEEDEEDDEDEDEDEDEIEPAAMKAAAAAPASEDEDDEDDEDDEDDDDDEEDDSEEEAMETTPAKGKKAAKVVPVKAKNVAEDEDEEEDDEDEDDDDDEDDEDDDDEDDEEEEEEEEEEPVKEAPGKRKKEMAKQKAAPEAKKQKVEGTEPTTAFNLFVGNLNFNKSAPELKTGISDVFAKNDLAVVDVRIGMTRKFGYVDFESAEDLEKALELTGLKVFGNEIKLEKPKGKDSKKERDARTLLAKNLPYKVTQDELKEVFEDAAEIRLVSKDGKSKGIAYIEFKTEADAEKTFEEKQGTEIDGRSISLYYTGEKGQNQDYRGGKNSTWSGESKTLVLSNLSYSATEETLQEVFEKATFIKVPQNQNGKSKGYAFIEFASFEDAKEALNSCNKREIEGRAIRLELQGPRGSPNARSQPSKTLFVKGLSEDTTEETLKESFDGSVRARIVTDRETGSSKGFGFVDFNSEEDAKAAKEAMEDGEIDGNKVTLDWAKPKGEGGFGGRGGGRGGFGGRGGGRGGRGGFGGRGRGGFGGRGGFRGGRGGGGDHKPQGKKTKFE

What was measured:
[1] = biological target: human HDGF PWWP domain (residues 1-100) (human) (UniProt P51858); assay: condition: only initial concentration of less than ~1.5 mg/mL; SEC; Superdex-200; apo PWWP domain at an initial concentration of less than ~1.5 mg/mL; 20 mM Tris-HCl, 5 mM EDTA, 5 mM beta-ME, pH 7.5; both purified
[2] = biological target: human HDGF PWWP domain (residues 1-100) (human) (UniProt P51858); assay: condition: only monomeric PWWP domain incubated 1:1 with 5-bp SMYD1 DNA; SEC; Superdex-200, size calibration; monomeric PWWP domain incubated 1:1 with 5-bp SMYD1 DNA at 4 °C overnight; 20 mM Tris-HCl, 5 mM EDTA, 5 mM beta-ME, pH 7.5; both purified
[3] = biological target: human nucleolin (NCL) (human) (UniProt P19338); assay: ELISA; solid-phase binding assay; NCL coated at 10 µg/mL, 4 °C overnight; HDGF or PWWP domain (apo or as complex with 15-bp SMYD1 DNA) reacted at 25 °C for 1.5 h; detected with a PWWP-specific antibody and an HRP-conjugated antibody, OD 450 nm; both purified

binding [1]: no binding
binding [2]: no binding
binding [3]: binds
Substance: human HDGF PWWP domain (residues 1-100) (from UniProt P51858 1-100) (domain or fragment)
